This data set is described as follows: general procedure: solution-phase peptide synthesis; HATU / N-methylmorpholine.

“((2R,3R)-3-((S)-1-((3R,4S,5S)-4-((S)-2-((S)-2-((tert-butoxycarbonyl)(methyl)amino)-3-methylbutanamido)-N,3-dimethylbutanamido)-3-methoxy-5-methylheptanoyl)pyrrolidin-2-yl)-3-methoxy-2-methylpropanoyl)-L-phenylalanine” returned a step yield (late stage modification step) of 90%. On to “methyl ((2R,3R)-3-((S)-1-((3R,4S,5S)-4-((S)-2-((S)-2-((tert-butoxycarbonyl)(methyl)amino)-3-methylbutanamido)-N,3-dimethylbutanamido)-3-methoxy-5-methylheptanoyl)pyrrolidin-2-yl)-3-methoxy-2-methylpropanoyl)-L-phenylalaninate”, for which, under “coupling step”, the step yield is on record as 79%. Same read-out and setting: next, “methyl ((2R,3R)-3-((S)-1-((3R,4S,5S)-4-((S)-2-((tert-butoxycarbonyl)amino)-N,3-dimethylbutanamido)-3-methoxy-5-methylheptanoyl)pyrrolidin-2-yl)-3-methoxy-2-methylpropanoyl)-L-phenylalaninate”: 76%.

The values above are taken from US20260224721A1 (Ambrx, Inc., priority 2023, published 2026).
